{"sequences": {"note": "Amino acid sequences for entries named in this document (tags omitted).", "UniProt P38270": "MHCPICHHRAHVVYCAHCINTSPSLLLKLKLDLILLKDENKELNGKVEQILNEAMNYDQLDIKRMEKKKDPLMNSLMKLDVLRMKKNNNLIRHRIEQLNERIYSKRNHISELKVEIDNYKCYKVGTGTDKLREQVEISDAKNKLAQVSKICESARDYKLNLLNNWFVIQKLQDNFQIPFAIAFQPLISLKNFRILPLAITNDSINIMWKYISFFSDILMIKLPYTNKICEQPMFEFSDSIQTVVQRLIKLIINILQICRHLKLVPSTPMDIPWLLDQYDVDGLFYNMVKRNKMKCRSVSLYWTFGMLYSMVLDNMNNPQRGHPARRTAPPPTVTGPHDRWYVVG", "UniProt P53855": "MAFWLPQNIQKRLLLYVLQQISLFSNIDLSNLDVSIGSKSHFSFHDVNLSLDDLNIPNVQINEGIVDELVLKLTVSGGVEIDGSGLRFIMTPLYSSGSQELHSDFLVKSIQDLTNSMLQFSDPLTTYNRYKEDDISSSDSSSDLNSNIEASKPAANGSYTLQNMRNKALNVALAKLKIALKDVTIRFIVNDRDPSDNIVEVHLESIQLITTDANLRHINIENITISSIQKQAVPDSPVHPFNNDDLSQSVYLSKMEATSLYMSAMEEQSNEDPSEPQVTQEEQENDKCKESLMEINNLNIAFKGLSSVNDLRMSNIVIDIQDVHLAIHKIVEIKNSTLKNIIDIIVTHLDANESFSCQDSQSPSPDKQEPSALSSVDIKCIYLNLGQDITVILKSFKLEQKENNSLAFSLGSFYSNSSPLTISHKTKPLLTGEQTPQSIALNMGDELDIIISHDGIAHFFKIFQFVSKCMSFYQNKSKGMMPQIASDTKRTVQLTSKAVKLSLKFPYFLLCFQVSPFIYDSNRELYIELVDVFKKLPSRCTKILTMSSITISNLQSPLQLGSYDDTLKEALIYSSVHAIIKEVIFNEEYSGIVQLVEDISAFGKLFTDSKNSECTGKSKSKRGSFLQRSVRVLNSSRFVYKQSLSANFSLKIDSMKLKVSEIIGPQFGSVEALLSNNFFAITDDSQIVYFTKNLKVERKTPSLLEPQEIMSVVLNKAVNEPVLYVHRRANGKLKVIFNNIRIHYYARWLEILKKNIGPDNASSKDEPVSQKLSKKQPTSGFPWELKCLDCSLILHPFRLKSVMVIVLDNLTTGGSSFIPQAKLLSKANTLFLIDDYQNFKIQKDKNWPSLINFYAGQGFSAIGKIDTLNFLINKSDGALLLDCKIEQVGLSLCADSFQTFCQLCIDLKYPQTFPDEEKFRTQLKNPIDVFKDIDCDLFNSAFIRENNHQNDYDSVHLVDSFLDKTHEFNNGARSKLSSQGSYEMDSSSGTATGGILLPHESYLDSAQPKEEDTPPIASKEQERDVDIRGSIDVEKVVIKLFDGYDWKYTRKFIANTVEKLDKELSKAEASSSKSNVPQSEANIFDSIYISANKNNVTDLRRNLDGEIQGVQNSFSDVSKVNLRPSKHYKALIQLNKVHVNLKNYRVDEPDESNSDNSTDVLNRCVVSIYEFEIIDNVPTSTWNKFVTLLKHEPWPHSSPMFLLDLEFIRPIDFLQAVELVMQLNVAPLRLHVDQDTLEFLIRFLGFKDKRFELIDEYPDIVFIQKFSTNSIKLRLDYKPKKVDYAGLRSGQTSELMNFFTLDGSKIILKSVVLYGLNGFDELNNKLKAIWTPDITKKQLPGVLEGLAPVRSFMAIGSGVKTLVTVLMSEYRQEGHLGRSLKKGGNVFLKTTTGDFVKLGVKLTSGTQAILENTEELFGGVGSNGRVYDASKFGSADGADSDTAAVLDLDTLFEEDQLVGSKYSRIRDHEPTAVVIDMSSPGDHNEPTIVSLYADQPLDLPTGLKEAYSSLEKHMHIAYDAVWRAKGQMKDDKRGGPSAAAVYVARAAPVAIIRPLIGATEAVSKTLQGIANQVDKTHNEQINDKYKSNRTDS"}, "source": "paper PMC11423678", "molecules": {"B1": {"name": "Atg3 (enzyme, UniProt P40344 1-310)", "chain": "MIRSTLSSWREYLTPITHKSTFLTTGQITPEEFVQAGDYLCHMFPTWKWNEESSDISYRDFLPKNKQFLIIRKVPCDKRAEQCVEVEGPDVIMKGFAEDGDEDDVLEYIGSETEHVQSTPAGGTKDSSIDDIDELIQDMEIKEEDENDDTEEFNAKGGLAKDMAQERYYDLYIAYSTSYRVPKMYIVGFNSNGSPLSPEQMFEDISADYRTKTATIEKLPFYKNSVLSVSIHPCKHANVMKILLDKVRVVRQRRRKELQEEQELDGVGDWEDLQDDIDDSLRVDQYLIVFLKFITSVTPSIQHDYTMEGW"}, "B2": {"name": "Atg19 (receptor, UniProt P35193 1-415)", "chain": "MNNSKTNQQMNTSMGYPLTVYDECNKFQLIVPTLDANIMLWCIGQLSLLNDSNGCKHLFWQPNDKSNVRILLNNYDYGHLFKYLQCQRKCSVYIGEGTLKKYNLTISTSFDNFLDLTPSEEKESLCREDAHEDPVSPKAGSEEEISPNSTSNVVVSRECLDNFMKQLLKLEESLNKLELEQKVTNKEPNHRISGTIDIPEDRSELVNFFTELKTVKQLEDVFQRYHDYERLSQECDSKTEIASDHSKKETKIEVEPPNERSLQITMNQRDNSLYFQLFNNTNSVLAGNCKLKFTDAGDKPTTQIIDMGPHEIGIKEYKEYRYFPYALDLEAGSTIEIENQYGEVIFLGKYGSSPMINLRPPSRLSAESLQASQEPFYSFQIDTLPELDDSSIISTSISLSYDGDDNEKALTWEEL"}, "B3": {"name": "Atg23 (protein, UniProt Q06671 1-453)", "chain": "MELNQVLEKKEQILQYLGTLVGLHEKALSDVNSASQVTSIRKDITICLNDLCRINDLLVSHDGLLKREIGSLLRDKQELLELNEREQLLWKERKSWHIKQETDAAPADYVIDKDAIITISSHHRTSLNKYIESVGAENTILSNTDDSDAMIEEVQNAESSADQMIRNYKLLQLSHKQAKSEIIRLETLLRDFKKDNKFIEEELKRQSGRIRSEMGNIDFHLSKIEESKHQLMKRIGFESPLTQEKSLSEKIFNLRLSSADEDYNERQTINMKNFVHMKDLIELKIEDLQEQLMRNKNESSTVLTQRELWLDCQKKVGDLESKLITKLRSSSNSKIPPNEMSEMINSTIQYLNNLLDSSDEKLTTTLISNERDVLSKACEELHSESTTAQDGSSALPSKPIDIHKSHKGSNASSNLKQPSTPSFLVASKSPPKIGISESVVNANKNDAISKKVE"}, "B4": {"name": "Atg27 (protein, UniProt P46989 20-271)", "chain": "LSCEKHDVLKKYQVGKFSSLTSTERDTPPSTTIEKWWINVCEEHNVEPPEECKKNDMLCGLTDVILPGKDAITTQIIDFDKNIGFNVEETESALTLTLKGATWGANSFDAKLEFQCNDNMKQDELTSHTWADKSIQLTLKGPSGCLKSKDDDKKNGDGDNGKDGDSEGKKPAKKAGGTSWFTWLFLYALLFTLIYLMVVSFLNTRGGSFQDFRAEFIQRSTQFLTSLPEFCKEVVSRILGRSTAQRGGYSAV"}, "B5": {"name": "Atg21 (protein, UniProt Q02887 1-496)", "chain": "MKVLQFNQDATCCVVAASSHQISIFNCDPFGKCFEIDTKNSKKKTSNNNGSASNSESRNNEESILITNGSRDRTDAEEEEDNEDNALVTGNILKEGEFVIEMLFSTSLIAIADRGQGLNKGKKLKIVNTKRKCTICEIVFPHEIVDVVMNRKRMCVLLESDQIFIYDISCMKPLETIDLWEDHYKRSQANSFSNASNTGTLEGDSANLNRVATNLLANATQKSVNGSNPSVRTRRNSLRSKIRPRMVLSNDDRSILCFTAYSSPKKNKPNSEALYDVVIYDTLNVTPVNYLNSVHKGNVACLAVSHDGKLLATASDKGTIIRVFHTGVDSDYMSSRSLFKEFRRGTRLCNLYQLAFDKSMTMIGCVGDTDTIHLFKLDDASNSLPGDNSSNGHWNEEEYILASNSNPSMGTPKEIPLSKPRIANYFSKKIKSSIPNQNLSRNFAYITVNESNRSCLGFPDEFPNQVYIASDDGTFSIYSIPSKPGECVLTKNNKFT"}, "B6": {"name": "Ede1 (protein, UniProt P34216 1-1381)", "chain": "MASITFRTPLSSQEQAFYNQKFHQLDTEDLGVVTGEAVRPLFASSGLPGQLLSQVWATVDIDNKGFLNLNEFSAALRMIAQLQNAPNQPISAALYESTPTQLASFSINQNPAPMQSGSATGNTNNTDIPALSSNDIAKFSQLFDRTAKGAQTVAGDKAKDIFLKARLPNQTLGEIWALCDRDASGVLDKSEFIMAMYLIQLCMSHHPSMNTPPAVLPTQLWDSIRLEPVVVNQPNRTTPLSANSTGVSSLTRHSTISRLSTGAFSNAASDWSLSFEKKQQFDAIFDSLDKQHAGSLSSAVLVPFFLSSRLNQETLATIWDLADIHNNAEFTKLEFAIAMFLIQKKNAGVELPDVIPNELLQSPALGLYPPNPLPQQQSAPQIAIPSRASKPSLQDMPHQVSAPAVNTQPTVPQVLPQNSNNGSLNDLLALNPSFSSPSPTKAQTVVQNNTNNSFSYDNNNGQATLQQQQPQQPPPLTHSSSGLKKFTPTSNFGQSIIKEEPEEQEQLRESSDTFSAQPPPVPKHASSPVKRTASTTLPQVPNFSVFSMPAGAATSAATGAAVGAAVGAAALGASAFSRSSNNAFKNQDLFADGEASAQLSNATTEMANLSNQVNSLSKQASITNDKKSRATQELKRVTEMKNSIQIKLNNLRSTHDQNVKQTEQLEAQVLQVNKENETLAQQLAVSEANYHAAESKLNELTTDLQESQTKNAELKEQITNLNSMTASLQSQLNEKQQQVKQERSMVDVNSKQLELNQVTVANLQKEIDGLGEKISVYLTKQKELNDYQKTVEEQHAQLQAKYQDLSNKDTDLTDREKQLEERNRQIEEQENLYHQHVSKLQEMFDDLSQRKASFEKADQELKERNIEYANNVRELSERQMNLAMGQLPEDAKDIIAKSASNTDTTTKEATSRGNVHEDTVSKFVETTVENSNLNVNRVKDDEEKTERTESDVFDRDVPTLGSQSDSENANTNNGTQSGNETANPNLTETLSDRFDGDLNEYGIPRSQSLTSSVANNAPQSVRDDVELPETLEERDTINNTANRDNTGNLSHIPGEWEATPATASTDVLSNETTEVIEDGSTTKRANSNEDGESVSSIQESPKISAQPKAKTINEEFPPIQELHIDESDSSSSDDDEFEDTREIPSATVKTLQTPYNAQPTSSLEIHTEQVIKYPAPGTSPSHNEGNSKKASTNSILPVKDEFDDEFAGLEQAAVEEDNGADSESEFENVANAGSMEQFETIDHKDLDDELQMNAFTGTLTSSSNPTIPKPQVQQQSTSDPAQVSNDEWDEIFAGFGNSKAEPTKVATPSIPQQPIPLKNDPIVDASLSKGPIVNRGVATTPKSLAVEELSGMGFTEEEAHNALEKCNWDLEAATNFLLDSA"}}, "key": {"[1]": {"molecular_target": "T1, Atg9-FLAG-APEX2-NES (strain YFMLY170) (S. cerevisiae) (UniProt Q12142)", "T1 sequence": "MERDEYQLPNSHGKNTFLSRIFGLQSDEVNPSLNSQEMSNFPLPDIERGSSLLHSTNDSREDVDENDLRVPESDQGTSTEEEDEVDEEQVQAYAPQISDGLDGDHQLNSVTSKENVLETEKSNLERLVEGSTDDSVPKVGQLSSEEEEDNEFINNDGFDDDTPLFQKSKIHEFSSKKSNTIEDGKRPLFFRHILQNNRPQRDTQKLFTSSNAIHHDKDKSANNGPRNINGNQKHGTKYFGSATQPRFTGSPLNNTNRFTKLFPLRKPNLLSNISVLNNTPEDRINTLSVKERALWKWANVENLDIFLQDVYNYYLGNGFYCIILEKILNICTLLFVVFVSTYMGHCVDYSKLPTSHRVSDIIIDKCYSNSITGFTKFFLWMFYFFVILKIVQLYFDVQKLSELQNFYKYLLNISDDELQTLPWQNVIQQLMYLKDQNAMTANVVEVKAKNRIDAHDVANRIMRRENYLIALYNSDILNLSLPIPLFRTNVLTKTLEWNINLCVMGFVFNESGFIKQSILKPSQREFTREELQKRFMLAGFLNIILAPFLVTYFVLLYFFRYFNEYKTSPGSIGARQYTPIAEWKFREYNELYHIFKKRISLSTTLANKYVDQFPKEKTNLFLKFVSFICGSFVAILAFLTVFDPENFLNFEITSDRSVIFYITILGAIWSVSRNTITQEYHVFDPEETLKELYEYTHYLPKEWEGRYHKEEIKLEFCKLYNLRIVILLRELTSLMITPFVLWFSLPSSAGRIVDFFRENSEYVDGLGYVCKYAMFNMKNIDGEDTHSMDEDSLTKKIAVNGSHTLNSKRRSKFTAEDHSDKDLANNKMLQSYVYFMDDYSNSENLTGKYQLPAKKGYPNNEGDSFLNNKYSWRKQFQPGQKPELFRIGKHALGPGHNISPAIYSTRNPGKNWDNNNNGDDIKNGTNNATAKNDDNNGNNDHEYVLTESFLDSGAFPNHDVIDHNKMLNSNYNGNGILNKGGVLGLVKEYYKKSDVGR", "test": "proximity labelling; APEX2 fused to the bait at endogenous level in YSBN5 cells; biotin-free SMD (growing) or 1 h nitrogen starvation in SD-N; cells snap frozen in LN2, thawed on ice, BP and H2O2 for 1 min at RT; streptavidin agarose, on-bead trypsin digestion, DIA LC-MS/MS; control without H2O2; hits at p < 0.05"}, "[2]": {"molecular_target": "T2, FLAG-APEX2-NES-Atg8 (strain YFMLY141) (S. cerevisiae) (UniProt P38182)", "T2 sequence": "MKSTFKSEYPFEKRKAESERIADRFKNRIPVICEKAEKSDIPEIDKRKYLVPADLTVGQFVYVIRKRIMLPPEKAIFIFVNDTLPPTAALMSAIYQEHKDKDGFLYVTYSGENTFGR", "test": "proximity labelling; APEX2 fused to the bait at endogenous level in YSBN5 cells; biotin-free SMD (growing) or 1 h nitrogen starvation in SD-N; cells snap frozen in LN2, thawed on ice, BP and H2O2 for 1 min at RT; streptavidin agarose, on-bead trypsin digestion, DIA LC-MS/MS; control without H2O2; hits at p < 0.05"}}, "note": "Results are given in words; binding and its absence hold for the method and conditions named. Binding seen in cells or lysates may run through a third protein. Here binding means that the protein was enriched with, or labelled near, the bait; the list need not be complete. For part of these data: A no says only that the protein was not detected with the bait. Tags and fused reporters may be left off the sequences shown.", "data": [{"molecule": "Atg14 (from UniProt P38270 1-344)", "values": [{"measurement": "binding", "setting": "[1]", "result": "binds"}]}, {"molecule": "Atg2 (from UniProt P53855 1-1592)", "values": [{"measurement": "binding", "setting": "[1]", "result": "binds"}]}, {"molecule": "Act1 (from UniProt P60010 1-375)", "values": [{"measurement": "binding", "setting": "[2]", "result": "no binding"}]}, {"molecule": "B1", "values": [{"measurement": "binding", "setting": "[2]", "result": "binds"}]}, {"molecule": "B2", "values": [{"measurement": "binding", "setting": "[2]", "result": "binds"}]}, {"molecule": "B3", "values": [{"measurement": "binding", "setting": "[1]", "result": "binds"}]}, {"molecule": "B4", "values": [{"measurement": "binding", "setting": "[1]", "result": "binds"}]}, {"molecule": "B5", "values": [{"measurement": "binding", "setting": "[1]", "result": "binds"}]}, {"molecule": "B6", "values": [{"measurement": "binding", "setting": "[2]", "result": "binds"}]}]}
